From paper PMC4269892
Results are given in words; binding and its absence hold for the method and conditions named. Binding seen in cells or lysates may run through a third protein. Some results given as binding are weak or reduced against the parent protein; the word gives no strength.

Chains of the proteins cited; added tags and fusions are not shown.
UniProt Q9BSK0: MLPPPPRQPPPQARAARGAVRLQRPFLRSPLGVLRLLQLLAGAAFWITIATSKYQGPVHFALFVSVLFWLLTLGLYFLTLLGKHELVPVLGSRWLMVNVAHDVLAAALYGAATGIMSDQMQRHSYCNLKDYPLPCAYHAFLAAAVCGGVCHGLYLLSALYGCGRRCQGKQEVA
UniProt Q96Q15: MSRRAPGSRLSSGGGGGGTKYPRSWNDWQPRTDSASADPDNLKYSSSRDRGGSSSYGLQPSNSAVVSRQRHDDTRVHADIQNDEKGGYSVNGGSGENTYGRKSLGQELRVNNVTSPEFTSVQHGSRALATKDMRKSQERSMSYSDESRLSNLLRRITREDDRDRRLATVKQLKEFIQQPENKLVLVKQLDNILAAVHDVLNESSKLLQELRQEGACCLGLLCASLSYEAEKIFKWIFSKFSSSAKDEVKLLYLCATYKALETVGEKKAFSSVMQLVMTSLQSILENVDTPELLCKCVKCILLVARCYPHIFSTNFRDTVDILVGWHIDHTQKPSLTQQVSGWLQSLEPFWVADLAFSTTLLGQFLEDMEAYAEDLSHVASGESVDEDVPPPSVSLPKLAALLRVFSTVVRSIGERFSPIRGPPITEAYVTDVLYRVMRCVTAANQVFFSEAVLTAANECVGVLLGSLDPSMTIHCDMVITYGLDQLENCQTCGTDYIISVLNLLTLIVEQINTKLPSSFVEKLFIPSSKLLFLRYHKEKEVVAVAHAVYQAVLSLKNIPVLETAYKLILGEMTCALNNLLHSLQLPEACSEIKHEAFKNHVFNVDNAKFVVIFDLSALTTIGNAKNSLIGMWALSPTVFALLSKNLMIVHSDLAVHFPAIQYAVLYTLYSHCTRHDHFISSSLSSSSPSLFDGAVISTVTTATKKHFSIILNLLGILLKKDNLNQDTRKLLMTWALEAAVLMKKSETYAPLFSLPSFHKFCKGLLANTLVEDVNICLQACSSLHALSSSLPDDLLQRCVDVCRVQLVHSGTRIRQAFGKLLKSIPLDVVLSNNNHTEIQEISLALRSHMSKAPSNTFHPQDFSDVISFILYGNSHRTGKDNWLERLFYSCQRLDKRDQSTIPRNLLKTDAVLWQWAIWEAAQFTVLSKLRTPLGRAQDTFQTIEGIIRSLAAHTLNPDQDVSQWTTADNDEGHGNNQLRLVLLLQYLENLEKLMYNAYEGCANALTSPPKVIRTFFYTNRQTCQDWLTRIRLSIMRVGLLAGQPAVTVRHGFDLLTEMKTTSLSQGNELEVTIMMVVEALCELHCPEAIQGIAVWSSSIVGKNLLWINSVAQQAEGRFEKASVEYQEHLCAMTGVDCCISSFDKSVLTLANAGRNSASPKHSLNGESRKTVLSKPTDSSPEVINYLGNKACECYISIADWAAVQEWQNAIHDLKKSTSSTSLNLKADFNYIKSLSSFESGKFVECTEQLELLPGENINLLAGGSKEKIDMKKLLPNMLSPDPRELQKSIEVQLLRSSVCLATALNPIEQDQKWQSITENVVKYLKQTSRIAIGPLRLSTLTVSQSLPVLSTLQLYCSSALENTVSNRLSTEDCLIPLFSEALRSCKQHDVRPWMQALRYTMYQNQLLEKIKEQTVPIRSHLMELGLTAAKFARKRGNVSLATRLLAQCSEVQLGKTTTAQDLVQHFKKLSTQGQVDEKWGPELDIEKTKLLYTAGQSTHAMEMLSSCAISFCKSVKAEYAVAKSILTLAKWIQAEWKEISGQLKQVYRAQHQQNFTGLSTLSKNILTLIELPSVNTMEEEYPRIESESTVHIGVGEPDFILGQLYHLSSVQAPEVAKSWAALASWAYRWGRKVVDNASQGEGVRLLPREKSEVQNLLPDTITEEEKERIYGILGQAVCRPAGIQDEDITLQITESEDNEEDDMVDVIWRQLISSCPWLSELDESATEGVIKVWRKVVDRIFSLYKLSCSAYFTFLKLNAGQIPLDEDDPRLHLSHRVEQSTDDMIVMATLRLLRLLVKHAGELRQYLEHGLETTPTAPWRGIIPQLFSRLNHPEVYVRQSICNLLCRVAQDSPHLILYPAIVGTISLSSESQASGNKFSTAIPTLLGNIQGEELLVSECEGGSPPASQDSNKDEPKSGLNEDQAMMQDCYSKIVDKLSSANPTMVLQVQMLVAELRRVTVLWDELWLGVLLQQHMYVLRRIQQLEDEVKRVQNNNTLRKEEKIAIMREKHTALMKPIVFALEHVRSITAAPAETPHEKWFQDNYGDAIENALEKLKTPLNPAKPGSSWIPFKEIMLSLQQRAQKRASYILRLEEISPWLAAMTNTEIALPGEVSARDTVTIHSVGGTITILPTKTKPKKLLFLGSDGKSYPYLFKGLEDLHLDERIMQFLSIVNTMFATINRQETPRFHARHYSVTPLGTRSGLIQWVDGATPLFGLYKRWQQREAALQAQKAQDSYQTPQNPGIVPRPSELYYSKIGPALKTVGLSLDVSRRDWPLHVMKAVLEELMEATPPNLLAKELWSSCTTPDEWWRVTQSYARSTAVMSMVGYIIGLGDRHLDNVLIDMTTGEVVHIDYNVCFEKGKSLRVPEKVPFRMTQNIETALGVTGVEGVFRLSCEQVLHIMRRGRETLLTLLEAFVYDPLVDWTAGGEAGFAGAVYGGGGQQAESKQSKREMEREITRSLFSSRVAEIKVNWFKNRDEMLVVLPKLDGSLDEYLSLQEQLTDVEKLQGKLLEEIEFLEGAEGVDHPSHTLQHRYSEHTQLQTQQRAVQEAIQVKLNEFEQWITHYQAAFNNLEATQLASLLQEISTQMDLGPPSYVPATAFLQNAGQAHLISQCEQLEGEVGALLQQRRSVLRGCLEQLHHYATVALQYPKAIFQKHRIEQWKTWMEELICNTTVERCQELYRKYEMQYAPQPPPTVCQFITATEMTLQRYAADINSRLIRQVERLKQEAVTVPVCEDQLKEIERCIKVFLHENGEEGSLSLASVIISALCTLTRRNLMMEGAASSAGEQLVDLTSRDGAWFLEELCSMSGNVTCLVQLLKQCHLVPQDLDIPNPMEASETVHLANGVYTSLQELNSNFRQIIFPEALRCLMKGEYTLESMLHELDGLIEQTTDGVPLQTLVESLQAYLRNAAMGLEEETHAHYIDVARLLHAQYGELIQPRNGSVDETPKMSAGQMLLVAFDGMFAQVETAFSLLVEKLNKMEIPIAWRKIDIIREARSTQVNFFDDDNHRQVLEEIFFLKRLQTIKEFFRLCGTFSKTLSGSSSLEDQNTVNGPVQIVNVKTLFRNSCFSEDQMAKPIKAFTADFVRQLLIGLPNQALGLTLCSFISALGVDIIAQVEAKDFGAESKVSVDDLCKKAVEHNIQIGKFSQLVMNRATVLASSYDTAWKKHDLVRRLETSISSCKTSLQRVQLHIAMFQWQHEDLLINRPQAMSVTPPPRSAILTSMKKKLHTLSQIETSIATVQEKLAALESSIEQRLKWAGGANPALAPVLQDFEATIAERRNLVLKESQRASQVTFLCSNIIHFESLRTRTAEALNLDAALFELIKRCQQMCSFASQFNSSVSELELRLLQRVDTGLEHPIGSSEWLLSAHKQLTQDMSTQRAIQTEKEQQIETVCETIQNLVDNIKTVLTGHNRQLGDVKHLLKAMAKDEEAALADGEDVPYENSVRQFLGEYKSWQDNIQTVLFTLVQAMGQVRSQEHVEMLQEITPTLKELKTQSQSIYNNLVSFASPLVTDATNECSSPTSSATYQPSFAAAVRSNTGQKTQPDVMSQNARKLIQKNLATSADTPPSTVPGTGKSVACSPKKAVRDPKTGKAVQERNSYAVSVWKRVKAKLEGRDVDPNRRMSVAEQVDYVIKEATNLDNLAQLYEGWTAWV

Target: MARVELD1 (MARVEL domain containing 1) (human (endogenous in NCI-H292 and NCI-H520)) (UniProt Q9BSK0)
Test: co-IP; whole cell lysates of NCI-H292 and NCI-H520 (1 x 10^7 cells, RIPA lysis buffer with protease inhibitors); MARVELD1 antibody (Abcam) at 4°C for 12 h, Protein A Sepharose CL-4B beads 2 h, washed 3 times with RIPA buffer; control rabbit IgG; western blotting

SMG1 (from UniProt Q96Q15 1-3661) (enzyme)
binding: binds
